Measured values from PubChem BioAssay AID330 (DTP/NCI, 2004).
The list shows only some results of the screen, not a fair sample: it is rich in T/C values a quarter to a half above the control, in often repeated tests (any T/C) and in doses without a T/C. Further doses and runs are listed elsewhere. T/C: endpoint of the treated group in % of that of the vehicle group. Some entries give survivors of the animals treated and no T/C: the source holds a T/C of zero for them, seemingly a mark for toxic or unscored doses. Some doses without a T/C left all or most animals alive at the check, yet need not have been tolerated: survival well below the control is almost never listed, so the zero probably covers shortened survival too. Counts of survivors are from the toxicity check (mostly the fifth day) where no day follows; animals may have died later. Schedule codes are those of the source, read here as Q, the interval in days (D) or hours (H), X, the number of doses. Some entries hold several experiments; their values stand side by side, smallest first. Where survival is the endpoint, the PubChem record calls one and a half times the control and up active, and a quarter to a half above the control has no call in these data; cut-offs in other NCI protocols can differ. Some T/C values carry the count of animals alive at the toxicity check (mostly the fifth day); where none is given, no animal had died by that day.

Tested on: P388 leukemia ip, CD2F1 mice, survival T/C
Experiment: NCI In Vivo Anticancer Drug Screen. Data for tumor model P388 Leukemia (intraperitoneal) in CD2F1 (CDF1) mice
Conditions: T/C endpoint: median survival time, higher T/C = longer survival
[1] = dose: 25.0 mg/kg/injection, schedule: Q01DX005 (ip), vehicle: saline with Tween-80
[2] = dose: 50.0 mg/kg/injection, schedule: Q01DX005 (ip), vehicle: saline with Tween-80
[3] = dose: 100.0 mg/kg/injection, schedule: Q01DX005 (ip), vehicle: saline with Tween-80
[4] = dose: 200.0 mg/kg/injection, schedule: Q01DX005 (ip), vehicle: saline with Tween-80
[5] = dose: 200.0 mg/kg/injection, schedule: Q04DX002 (ip), vehicle: saline
[6] = dose: 400.0 mg/kg/injection, schedule: Q04DX002 (ip), vehicle: saline
[7] = dose: 400.0 mg/kg/injection, schedule: Q04DX003 (ip), vehicle: saline with Tween-80
[8] = dose: 200.0 mg/kg/injection, schedule: Q01DX009 (ip), vehicle: saline
[9] = dose: 25.0 mg/kg/injection, schedule: Q01DX009 (ip), vehicle: saline with Tween-80
[10] = dose: 50.0 mg/kg/injection, schedule: Q01DX009 (ip), vehicle: saline with Tween-80
[11] = dose: 100.0 mg/kg/injection, schedule: Q01DX009 (ip), vehicle: saline with Tween-80
[12] = dose: 50.0 mg/kg/injection, schedule: Q01DX009 (ip), vehicle: saline
[13] = dose: 120.0 mg/kg/injection, schedule: Q01DX005 (ip), vehicle: saline
[14] = dose: 240.0 mg/kg/injection, schedule: Q01DX005 (ip), vehicle: saline
[15] = dose: 200.0 mg/kg/injection, schedule: Q04DX003 (ip), vehicle: Klucel (hydroxypropylcellulose) (HPC)
[16] = dose: 400.0 mg/kg/injection, schedule: Q04DX003 (ip), vehicle: Klucel (hydroxypropylcellulose) (HPC)

With O=C(Nc1ccc(C2=NCC(O)CN2)cc1)c1ccc(C(=O)Nc2ccc(C3=NCC(O)CN3)cc2)cc1 (stereo not drawn) the T/C (dose: 3.13 mg/kg/injection, schedule: Q01DX005 (ip), vehicle: saline with Tween-80) was 125 % of control, the T/C (dose: 6.25 mg/kg/injection, schedule: Q01DX005 (ip), vehicle: saline with Tween-80) was 141 % of control [5 of 6 alive] and the survivor count (dose: 12.5 mg/kg/injection, schedule: Q01DX005 (ip), vehicle: saline with Tween-80) was 1 of 6 and 3 of 6. The survivor count [1] was 0 of 6, the survivor count [2] was 0 of 6 and the survivor count [3] was 0 of 6. The survivor count [4] was 0 of 6.
C=C=CCN(C)Cc1ccccc1 was tested, and the survivor count [5] was 2 of 6 and 3 of 6 and the survivor count [6] was 0 of 6.
For CC(=O)Nc1c(Cl)c(Cl)c2c(c1Cl)Cc1cc(Br)ccc1-2, the survivor count (dose: 200.0 mg/kg/injection, schedule: Q04DX003 (ip), vehicle: saline with Tween-80) was 5 of 6 and the survivor count [7] was 5 of 6.
CCNC(=O)OOC(C)(C)C was tested, and the survivor count [8] was 0 of 6.
For CN(C)C1CC2CCCCC2CC1O (stereo not drawn), the survivor count (dose: 400.0 mg/kg/injection, schedule: Q01DX001 (ip), vehicle: saline) was 1 of 6.
For O=C(Nc1ccccc1O)/C(Cl)=C/Cl, the T/C (dose: 22.0 mg/kg/injection, schedule: Q01DX009 (ip), vehicle: saline with Tween-80) was 125 % of control, the T/C [9] was 140 % of control and the T/C [10] was 125 and 127 % of control. For the same compound, the survivor count [11] was 3 of 6 and the survivor count [7] was 5 of 6.
CC(=O)NNC(=O)c1ccc2ccccc2n1 was tested, and the survivor count (dose: 200.0 mg/kg/injection, schedule: Q01DX009 (ip), vehicle: saline sonified) was 4 of 6.
For Cc1cc(N/N=C/c2ccccn2)c2cc3c(cc2n1)OCO3, the survivor count (dose: 100.0 mg/kg/injection, schedule: Q01DX005 (ip), vehicle: Klucel (hydroxypropylcellulose) (HPC)) was 5 of 6 and the survivor count (dose: 200.0 mg/kg/injection, schedule: Q01DX005 (ip), vehicle: Klucel (hydroxypropylcellulose) (HPC)) was 1 of 6.
In the case of COC(=O)C1c2cc3c(c(O)c2CCC1(C)O)C(=O)c1c(O)cc2c(c1C3=O)OC1OC2(C)C(O)C(N(C)C)C1O (stereo not drawn), the T/C (dose: 12.5 mg/kg/injection, schedule: Q04DX003 (ip), vehicle: saline) is reported as 145 % of control, the T/C (dose: 25.0 mg/kg/injection, schedule: Q01DX009 (ip), vehicle: saline) is reported as 125 % of control and the T/C [12] is reported as 127 % of control.
CCCCN(CCCC)CCCNc1c2c(nc3ccccc13)CCCC2 was tested, and the survivor count (dose: 100.0 mg/kg/injection, schedule: Q01DX005 (ip), vehicle: saline) was 0 of 5 and the survivor count (dose: 200.0 mg/kg/injection, schedule: Q01DX005 (ip), vehicle: saline) was 0 of 5.
O=C(NO)C1NC1C(=O)NO (stereo not drawn) was tested, and the T/C (dose: 200.0 mg/kg/injection, schedule: Q01DX009 (ip), vehicle: water) was 128 % of control.
CC1CC(C(=O)c2ccoc2)C(=O)O1 (stereo not drawn) was tested, and the survivor count [3] was 2 of 6 and the survivor count [4] was 0 of 6.
CC(=O)Nc1[c-]cccc1.CC(=O)Nc1[c-]cccc1.CC(=O)O.CC(=O)O.[Pd].[Pd] was tested, and the T/C [2] was 128 % of control, the survivor count [3] was 0 of 6 and the survivor count [4] was 0 of 6.
CC(C)([NH-])CO.CC(C)([NH-])CO.[Cl][Cd][Cl] was tested, and the survivor count (dose: 12.5 mg/kg/injection, schedule: Q01DX009 (ip), vehicle: saline) was 6 of 6.
For CC(=O)OCc1c(-c2ccccc2)nc2sccn12, the survivor count (dose: 400.0 mg/kg/injection, schedule: Q01DX001 (ip), vehicle: Klucel (hydroxypropylcellulose) (HPC)) was 1 of 6.
With COc1ccc(C[n+]2ccc3ccccc3c2)cc1 the survivor count [13] was 0 of 6 and the survivor count [14] was 0 of 6.
In the case of OC1(C(O)(c2ccc(-c3ccccc3)cc2)c2ccc(-c3ccccc3)cc2)CCCCC1, the survivor count [4] is reported as 6 of 6.
CCCCCCCCCCCCCC[N+]1(CC)CCCC1 was tested, and the survivor count (dose: 25.0 mg/kg/injection, schedule: Q04DX002 (ip), vehicle: saline) was 1 of 6, the survivor count (dose: 100.0 mg/kg/injection, schedule: Q04DX002 (ip), vehicle: saline) was 0 of 6 and the survivor count [5] was 0 of 6. For the same compound, the survivor count [6] was 0 of 6.
For CN(C)P(=O)(Oc1occc1C(C)(C)O)N(C)C, the survivor count (dose: 30.0 mg/kg/injection, schedule: Q01DX005 (ip), vehicle: saline) was 0 of 6, the survivor count (dose: 60.0 mg/kg/injection, schedule: Q01DX005 (ip), vehicle: saline) was 0 of 6 and the survivor count [13] was 0 of 6. For the same compound, the survivor count [14] was 0 of 6.
In the case of COC1OCC2(C)OC(c3ccccc3)=NC2C1O (stereo not drawn), the survivor count (dose: 400.0 mg/kg/injection, schedule: Q04DX002 (ip), vehicle: Klucel (hydroxypropylcellulose) (HPC)) is reported as 0 of 6.
For CC(C)(C)CC(C)(C)c1ccc(OCCO)cc1, the survivor count (dose: 200.0 mg/kg/injection, schedule: Q04DX003 (ip), vehicle: saline) was 4 of 6.
With CCCCOP(=O)(O)OCCCC.[U] the survivor count (dose: 12.5 mg/kg/injection, schedule: Q01DX009 (ip), vehicle: saline with Tween-80) was 6 of 6, the survivor count [9] was 6 of 6 and the survivor count [10] was 6 of 6. For the same compound, the survivor count [11] was 5 of 6 and the survivor count (dose: 200.0 mg/kg/injection, schedule: Q01DX009 (ip), vehicle: saline with Tween-80) was 5 of 6.
In the case of O=C1C(Cl)=C(n2c3ccccc3c3ccccc32)C(=O)c2ccccc21, the survivor count [1] is reported as 3 of 6, the survivor count [2] is reported as 0 of 6 and the survivor count [3] is reported as 0 of 6. For the same compound, the survivor count [4] was 0 of 6.
In the case of COC(=O)/C=C(\C(=O)OC)C(C(C)=O)C(C)=NCCN=C(C)C(C(C)=O)/C(=C/C(=O)OC)C(=O)OC.[Cu] (stereo not drawn), the survivor count [15] is reported as 0 of 6 and the survivor count [16] is reported as 0 of 6.
For O=C1C=CC(Nc2ccccc2[N+](=O)[O-])C1Nc1ccccc1[N+](=O)[O-] (stereo not drawn), the survivor count (dose: 240.0 mg/kg/injection, schedule: Q01DX005 (ip), vehicle: saline with Tween-80) was 3 of 6.
In the case of CC1(C)CC(N=[N+]=[N-])CC(C)(C)N1O, the survivor count [15] is reported as 5 of 6 and the survivor count [16] is reported as 0 of 6.
For [CH3][Sn]([CH3])([Br])[Br].c1ccc(-c2nnc(-c3ccccn3)nc2-c2ccccc2)cc1, the survivor count (dose: 240.0 mg/kg/injection, schedule: Q01DX005 (ip), vehicle: Klucel (hydroxypropylcellulose) (HPC)) was 0 of 6.
C[C@]12CCCC[C@@H]1CC[C@@H]1[C@@H]2CC[C@]2(C)[C@@H](N(CCO)CCCO)CC[C@@H]12 was tested, and the survivor count (dose: 100.0 mg/kg/injection, schedule: Q01DX009 (ip), vehicle: Klucel (hydroxypropylcellulose) (HPC)) was 6 of 6.
Cc1ccnc(N=C2N=C(Nc3cc(C)ccn3)c3ccccc32)c1 was tested, and the survivor count [10] was 6 of 6.
For C=C1C(=O)C23C(OC(=O)CCCCCCCCCCCCC)C1CCC2C12COC3(O)C(O)C1C(C)(C)CCC2O (stereo not drawn), the survivor count (dose: 30.0 mg/kg/injection, schedule: Q01DX009 (ip), vehicle: saline with Tween-80) was 5 of 6.
CCCCCCCCCC[N+]1(CC)CCCCC1 was tested, and the survivor count [12] was 0 of 6, the survivor count (dose: 100.0 mg/kg/injection, schedule: Q01DX009 (ip), vehicle: saline) was 0 of 6 and the survivor count [8] was 0 of 6.
